In all, about 400,000 compounds went through this assay and about 13,000 (3.2%) were called active. The inconclusive results got no clear call from the source; some entries with a clear call stand among them for comparison. The call rests on the fitted dose curve; in most records, active means well fitted cell-killing curve with a large enough effect; inconclusive means small, poorly fitted or top-dose-only effect, or effect the other way; inactive means flat fitted curve, though single readings scatter. Where the call is inconclusive, the potency comes from a doubtful curve fit.
experiment: qHTS assay for MDR1-selective chemotherapeutics: Primary screen using the drug-selected MDR subline cells KB-V1; conditions: KB-V1 MDR cells viability, CellTiter-Glo, 72 h; activity change, negative = cytotoxicity: at 46.1 µM (top of the series); further: nearly all actives have a fitted effect of over 60% in size
Summary of the method: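 KB-V1 MDR subline cells in DMEM (phenol-red free, 10% FBS) exposed to compounds in qHTS concentration series for 72 h at 37 degrees C. Viability read by CellTiter-Glo luminescence; concentration-effect curves fitted after normalization and correction.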
On the % scale 0 is the no-effect control and ±100 the full control effect; potency means the concentration at half of the fitted maximal effect.

Question: Which “activity change, negative = cytotoxicity” value does the source give for S=C(NCCN1CCOCC1)Nc1ccccc1Cl here?
Answer: The value was inactive: -0.146%.

Question: Which Potency does the source give for COCCCNC(=S)NNC(=O)c1ccccn1 here?
Answer: Its Potency is inconclusive: 29.1 µM [cytotoxic, single point].

Question: With CCOC(=O)c1nnn(-c2nonc2N)c1CS(=O)(=O)c1ccccc1 as the compound, how does the “activity change, negative = cytotoxicity” value read?
Answer: The value was inactive: 5.08%.

Question: For O=C(CNS(=O)(=O)c1cccs1)N1CCN(c2ccccc2Cl)CC1, which “activity change, negative = cytotoxicity” value is on record?
Answer: The value was inactive: -4.89%.

Question: With COc1cccc(-c2sc3ccccc3c2-c2ccc(OCCN(C)C)cc2)c1 as the compound, how does the Potency read?
Answer: Its Potency is inconclusive: 29.1 µM [cytotoxic, single point].

Question: With O=C(OC1CCCCC1)c1ccc(NC(=O)C2CCCCC2)cc1 as the compound, how does the Potency read?
Answer: The Potency was inconclusive: 29.1 µM [cytotoxic, single point].

Question: With COC(=O)c1ccc(NC(=O)COc2ccc(C3C(C#N)=C(N)Oc4c3ccc3ccccc43)cc2OC)cc1 (configuration not stated) as the compound, how does the Potency read?
Answer: The Potency was inconclusive: 7.31 µM [cytotoxic, partial curve].

Question: With COc1ccc(CN2CCCC(C(=O)Nc3cccc(-n4cccn4)c3)C2)c(F)c1 (configuration not stated) as the compound, how does the “activity change, negative = cytotoxicity” value read?
Answer: The value was inactive: -21.3%.

Question: Which Potency does the source give for CCn1c(COc2ccccc2)nnc1SCC(=O)Nc1cc(OC)ccc1OC here?
Answer: The Potency was active: 13 µM.

Question: Which “activity change, negative = cytotoxicity” value does the source give for O=[N+]([O-])c1ccc(-c2ccc(/C=N/Nc3nc(NCc4ccccc4)nc(N4CCOCC4)n3)o2)cc1 here?
Answer: The value was inactive: -3.19%.

Question: Which Potency does the source give for CCN(CC)CCNC(=O)c1ccc(N2CCCCC2)c(NS(=O)(=O)c2ccc(C)cc2)c1 here?
Answer: The Potency was inconclusive: 29.1 µM [cytotoxic, single point].

Question: With Cc1cccnc1NC(=O)c1cccc(S(=O)(=O)N2CCCc3ccccc32)c1 as the compound, how does the Potency read?
Answer: Its Potency is inconclusive: 16.4 µM [cytotoxic, partial curve].

Question: With Cc1ccc(C(=O)Nc2nc(C(C)(C)C)cs2)s1 as the compound, how does the Potency read?
Answer: The Potency was inconclusive: 9.2 µM [cytotoxic, single point].

Question: Which Potency does the source give for O=C(N/C(=C\c1ccc(F)cc1)C(=O)N1CCCCCC1)c1ccccc1 here?
Answer: Its Potency is inconclusive: 9.2 µM [cytotoxic, partial curve].

Question: Which Potency does the source give for c1ccc(CNc2nc(-c3ccccc3)nc3ccccc23)cc1 here?
Answer: The Potency was inconclusive: 20.6 µM [rising, single point].

Question: Which Potency does the source give for Cc1ccc(C(=O)N/N=C\C=C\c2ccccc2[N+](=O)[O-])cn1 here?
Answer: The Potency was inconclusive: 29.1 µM [rising, single point].

Question: With CC1(C)OC(=O)C2(Cc3ccc(Br)cc3N3CCCCC32)C(=O)O1 (configuration not stated) as the compound, how does the “activity change, negative = cytotoxicity” value read?
Answer: The value was inactive: 0%.

Question: For O=C(NC1CCCCC1)C(c1ccccc1)N1CCc2ccccc21 (configuration not stated), which Potency is on record?
Answer: Its Potency is inconclusive: 20.6 µM [cytotoxic, single point].

Question: Which Potency does the source give for Cc1cccc(C(=O)NC(=S)Nc2ccc(S(=O)(=O)N(C)c3ccccc3)cc2)c1 here?
Answer: Its Potency is inconclusive: 32.6 µM [cytotoxic, single point].

Question: With CCc1ccc(NC2=CC(=O)C(=O)c3ccccc32)cc1 as the compound, how does the Potency read?
Answer: The Potency was active: 16.4 µM.

Question: With O=C(NC(Cc1c[nH]c2ccccc12)C(=O)O)/C(=C\c1ccc2c(c1)OCO2)NC(=O)c1ccccc1 (configuration not stated) as the compound, how does the Potency read?
Answer: Its Potency is inconclusive: 18.4 µM [rising, single point].

Question: For N#Cc1c(-c2ccccc2Cl)noc1/C=C/Nc1ccc(C(=O)O)cc1, which “activity change, negative = cytotoxicity” value is on record?
Answer: Its value is inactive: 6.64%.

Question: For CC(=NNC(=S)Nc1ccccc1)c1ccccn1, which Potency is on record?
Answer: The Potency was inconclusive: 10.3 µM [cytotoxic, partial curve, poor fit].

Question: For CCCCC(=O)Nc1ccc(NC(=S)NC(=O)c2cccs2)cc1OC, which Potency is on record?
Answer: Its Potency is inconclusive: 10.3 µM [cytotoxic, partial curve, poor fit].

Question: With Cc1oc2c(c1C(=O)N1CCOCC1)C(=O)c1ccccc1C2=O as the compound, how does the Potency read?
Answer: Its Potency is inconclusive: 3.66 µM [cytotoxic, partial curve, poor fit].

Question: For CC(=O)c1ccc(N2CCN(C(=O)C3CCN(S(=O)(=O)c4ccc(Br)s4)CC3)CC2)cc1, which Potency is on record?
Answer: The Potency was inconclusive: 14.6 µM [cytotoxic, partial curve].

Question: For S=c1[nH]nc(CCc2ccccc2)n1-c1ccccc1, which Potency is on record?
Answer: The Potency was inconclusive: 20.6 µM [cytotoxic, partial curve, poor fit].

Question: Which Potency does the source give for O=C(c1c(Cl)nc2sccn12)N1CCCc2ccccc21 here?
Answer: Its Potency is inconclusive: 14.6 µM [cytotoxic, partial curve, poor fit].

Question: With O=C(CSc1nc2ccccc2c(=O)n1CCCN1CCOCC1)c1c[nH]c2ccccc12 as the compound, how does the Potency read?
Answer: Its Potency is inconclusive: 2.31 µM [cytotoxic, partial curve, poor fit].

Question: For COc1ccc(CCNc2oc(COc3ccc(Br)cc3)nc2C#N)cc1OC, which Potency is on record?
Answer: The Potency was inconclusive: 29.1 µM [cytotoxic, single point].

Question: Which Potency does the source give for Cc1c(N/N=C(\C#N)C(=O)c2ccccc2)c(=O)n(-c2ccccc2)n1C here?
Answer: The Potency was inconclusive: 29.1 µM [cytotoxic, single point].

Question: Which “activity change, negative = cytotoxicity” value does the source give for O=C(Nc1ccc(F)c(F)c1)c1cnn2c1NC(=C1CC1)C=C2C(F)(F)F here?
Answer: The value was inactive: -0.995%.

Question: For CC(=O)Nc1ccc(S(=O)(=O)N(C)CC(=O)OCC(=O)c2ccc3c(c2)NC(=O)CO3)cc1, which “activity change, negative = cytotoxicity” value is on record?
Answer: The value was inactive: 14.7%.

Question: Which “activity change, negative = cytotoxicity” value does the source give for CCCCn1c(N)c(N(CCC(C)C)C(=O)CCN2C(=O)C3CC=CCC3C2=O)c(=O)[nH]c1=O (configuration not stated) here?
Answer: The value was inactive: 28.3%.

Question: With O=C(NCC(=O)N1CCN(c2ncc(C(F)(F)F)cc2Cl)CC1)c1ccc(Br)o1 as the compound, how does the Potency read?
Answer: Its Potency is inconclusive: 9.2 µM [cytotoxic, partial curve].

Question: Which Potency does the source give for O=C(Nc1cnn(Cc2ccc(Cl)cc2Cl)c1)c1cc(-c2cccs2)on1 here?
Answer: Its Potency is inconclusive: 6.31 µM [cytotoxic, full curve, poor fit].

Question: For CCN(CC)c1ccc(NC(=O)c2cnccn2)cc1S(=O)(=O)Nc1ccc(OC)cc1, which Potency is on record?
Answer: Its Potency is active: 4.11 µM.

Question: Which Potency does the source give for c1ccc(C(c2nnnn2Cc2ccco2)N2CCN(c3nc4ccccc4s3)CC2)cc1 (configuration not stated) here?
Answer: Its Potency is inconclusive: 13 µM [cytotoxic, partial curve].

Question: With COc1ccc2nc(-c3ccccc3)nc(SC)c2c1 as the compound, how does the “activity change, negative = cytotoxicity” value read?
Answer: Its value is inactive: -9.18%.

Question: With Cc1cc(C)nc(SCC(=O)Nc2ncc(Cc3ccc(Cl)c(Cl)c3)s2)n1 as the compound, how does the Potency read?
Answer: The Potency was inconclusive: 2.31 µM [cytotoxic, full curve, poor fit].

Question: Which Potency does the source give for O=C(C1=C(O)C(=O)N(CCc2ccccc2)C1c1cccs1)c1ccco1 (configuration not stated) here?
Answer: Its Potency is inconclusive: 23.1 µM [cytotoxic, single point].

Question: With CC(=O)N1CCN(c2ccc(Nc3ncnc4c3oc3ccccc34)cc2)CC1 as the compound, how does the Potency read?
Answer: Its Potency is active: 20.6 µM.

Question: For Cc1nc2scc(C)n2c(=O)c1S(=O)(=O)Nc1cccc(O)c1, which “activity change, negative = cytotoxicity” value is on record?
Answer: Its value is inactive: -15.8%.

Question: For CCN(C(=O)COC(=O)c1ccccc1Cc1ccccc1)c1c(N)n(Cc2ccccc2)c(=O)[nH]c1=O, which “activity change, negative = cytotoxicity” value is on record?
Answer: The value was inactive: 5.82%.

Question: Which Potency does the source give for O=C(CSc1nc(-c2ccccc2)c(-c2ccccc2)[nH]1)Nc1ccc2c(c1)OCO2 here?
Answer: Its Potency is inconclusive: 10.3 µM [cytotoxic, partial curve].

Question: With CCN(CC(=O)Nc1c(F)cccc1F)C(=O)/C=C/c1c(C)nn(-c2ccc(F)cc2)c1C as the compound, how does the Potency read?
Answer: The Potency was inconclusive: 3.66 µM [cytotoxic, full curve].

Question: With O=C(CCOc1ccccc1)Nc1cccc(S(=O)(=O)Nc2ccccc2Cl)c1 as the compound, how does the Potency read?
Answer: The Potency was inconclusive: 23.1 µM [cytotoxic, single point].

Question: For COc1ccccc1NC(=S)N(CCN(C)C)C(C)c1ccncc1 (configuration not stated), which Potency is on record?
Answer: Its Potency is inconclusive: 14.6 µM [cytotoxic, partial curve].

Question: For CCN(CC(=O)Nc1ccccc1OC)C(=O)c1ccc(N(C)S(=O)(=O)c2ccc(C)cc2)cc1, which Potency is on record?
Answer: The Potency was inconclusive: 8.2 µM [cytotoxic, partial curve].

Question: For S=C(NCCc1ccccc1)NCCc1ccccc1, which Potency is on record?
Answer: Its Potency is inconclusive: 20.6 µM [cytotoxic, single point].

Question: Which Potency does the source give for CCN(C(=O)COC(=O)c1oc2ccc(OC)cc2c1C)C1CCCCC1 here?
Answer: The Potency was inconclusive: 29.1 µM [cytotoxic, single point].

Question: Which “activity change, negative = cytotoxicity” value does the source give for N#CCSc1ccccc1NC(=O)COC(=O)CCN1C(=O)C2CC=CCC2C1=O (configuration not stated) here?
Answer: Its value is inactive: 19.7%.

Question: For CCCCCn1c(=S)[nH]c2cc(C(=O)N3CCN(C(=O)OCC)CC3)ccc2c1=O, which Potency is on record?
Answer: Its Potency is inconclusive: 25.9 µM [cytotoxic, single point].

Question: For COc1ccc(OC)c(S(=O)(=O)NCCc2sc(-c3cccnc3)nc2C)c1, which Potency is on record?
Answer: The Potency was inconclusive: 16.4 µM [cytotoxic, single point].

Question: Which “activity change, negative = cytotoxicity” value does the source give for CC(=O)OC1=CN(Cc2ccccc2)S(=O)(=O)c2ccccc21 here?
Answer: The value was inactive: 4.15%.

Question: Which Potency does the source give for Cc1cnc(C(=O)Nc2nc(-c3ccccc3)cs2)cn1 here?
Answer: Its Potency is active: 23.1 µM.

Question: With Cc1c(NC(=O)CSCc2ccc(Br)cc2)c(=O)n(-c2ccccc2)n1C as the compound, how does the Potency read?
Answer: The Potency was inconclusive: 16.4 µM [cytotoxic, single point].

Question: With CCCCN1CC(c2nc3ccccc3n2CCCCOc2ccccc2C)CC1=O (configuration not stated) as the compound, how does the Potency read?
Answer: Its Potency is inconclusive: 23.1 µM [cytotoxic, single point].

Question: Which “activity change, negative = cytotoxicity” value does the source give for CCNC(=S)Nc1ccc(Cl)cc1 here?
Answer: The value was inactive: 9.64%.

Question: With Cc1ccc(C(=O)CN2C(=O)NC3(CCCCCC3)C2=O)c(C)c1 as the compound, how does the Potency read?
Answer: Its Potency is inconclusive: 18.4 µM [cytotoxic, single point].

Question: Which Potency does the source give for O=C(COC(=O)c1ccc(Br)o1)Nc1ccc(F)cc1[N+](=O)[O-] here?
Answer: Its Potency is inconclusive: 4.11 µM [rising, full curve, poor fit].

Question: With O=C(N/N=C/C=C\c1ccccc1[N+](=O)[O-])c1ccncc1 as the compound, how does the “activity change, negative = cytotoxicity” value read?
Answer: Its value is inactive: 1.01%.

Question: Which Potency does the source give for COc1ccc(CCC(C)NCCc2ccc(Cl)cc2Cl)cc1 (configuration not stated) here?
Answer: Its Potency is inconclusive: 13 µM [cytotoxic, partial curve].

Question: With Cc1cccc(C)c1Nc1c(-c2ccccc2Cl)nc2cnccn12 as the compound, how does the Potency read?
Answer: The Potency was inconclusive: 20.6 µM [cytotoxic, single point].

Question: Which Potency does the source give for CCN1CCN(Cc2nc3cc(NC(=O)COc4ccc([N+](=O)[O-])cc4)ccc3n2C)CC1 here?
Answer: Its Potency is inconclusive: 2.91 µM [rising, full curve, poor fit].

Question: With O=C(c1ccc2c(c1)N(Cc1ccc(Cl)cc1)C(=O)c1ccccc1S2(=O)=O)N1CCCCCC1 as the compound, how does the Potency read?
Answer: Its Potency is inconclusive: 13 µM [cytotoxic, partial curve, poor fit].

Question: With COc1ccc(-c2cc3c(=O)n(CC(=O)NCc4ccccc4OC)ncn3n2)cc1 as the compound, how does the Potency read?
Answer: The Potency was inconclusive: 29.1 µM [cytotoxic, single point].
